# Laboratory results taken from the supplement of paper PMC8728848.
# The other results are listed elsewhere or left out.
# What was measured:
# Assay in all cases: glycan array binding signal (z-score within array); higher = stronger binding
# Details in all cases: glycan notation: IUPAC condensed, linker removed
# [1] = biological target: Kdn(a2-3)Gal(b1-4)Glc
# Outline: (§1)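 From the Consortium for Functional Glycomics database, 3228 arrays were curated, keeping only those whose protein sequence was available. Binding is given as a within-array Z-score averaged across arrays sharing a protein sequence and across linkers. Negative Z-scores can be read as non-binding.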
# [2] = biological target: Kdn(a2-3)Gal(b1-4)GlcNAc
# Outline: as §1
# [3] = biological target: Kdn(a2-3)Gal(b1-4)[Fuc(a1-3)]GlcNAc
# Outline: as §1
# [4] = biological target: Kdn(a2-6)Gal(b1-4)GlcNAc
# Outline: as §1
# [5] = biological target: Man(a1-2)Man(a1-2)Man(a1-3)Man
# Outline: as §1
# [6] = biological target: Man(a1-2)Man(a1-2)Man(a1-6)[Man(a1-3)]Man
# Outline: as §1
# [7] = biological target: Man(a1-2)Man(a1-3)Man
# Outline: as §1
# [8] = biological target: Man(a1-2)Man(a1-3)[Man(a1-2)Man(a1-6)]Man
# Outline: as §1
# [9] = biological target: Man(a1-2)Man(a1-3)[Man(a1-2)Man(a1-6)]Man(a1-6)[Man(a1-2)Man(a1-2)Man(a1-3)]Man
# Outline: as §1
# [10] = biological target: Man(a1-2)Man(a1-3)[Man(a1-2)Man(a1-6)]Man(a1-6)[Man(a1-2)Man(a1-2)Man(a1-3)]Man(b1-4)GlcNAc(b1-4)GlcNAc
# Outline: as §1
# [11] = biological target: Man(a1-2)Man(a1-3)[Man(a1-6)]Man(a1-6)[Man(a1-2)Man(a1-3)]Man(b1-4)GlcNAc(b1-4)GlcNAc
# Outline: as §1
# [12] = biological target: Man(a1-2)Man(a1-6)[Man(a1-3)]Man(a1-6)[Man(a1-2)Man(a1-2)Man(a1-3)]Man
# Outline: as §1
# [13] = biological target: Man(a1-2)Man(a1-6)[Man(a1-3)]Man(a1-6)[Man(a1-2)Man(a1-2)Man(a1-3)]Man(b1-4)GlcNAc(b1-4)GlcNAc
# Outline: as §1
# [14] = biological target: Man(a1-3)[Man(a1-6)]Man
# Outline: as §1
# [15] = biological target: Man(a1-3)[Man(a1-6)]Man(a1-6)[Man(a1-2)Man(a1-3)]Man(b1-4)GlcNAc(b1-4)GlcNAc
# Outline: as §1
# [16] = biological target: Man(a1-3)[Man(a1-6)]Man(a1-6)[Man(a1-3)]Man
# Outline: as §1
# [17] = biological target: Man(a1-3)[Man(a1-6)]Man(a1-6)[Man(a1-3)]Man(b1-4)GlcNAc(b1-4)GlcNAc
# Outline: as §1
# [18] = biological target: Man(a1-3)[Man(a1-6)]Man(b1-4)GlcNAc(b1-4)GlcNAc
# Outline: as §1
# [19] = biological target: Man(a1-3)[Man(a1-6)]Man(b1-4)GlcNAc(b1-4)[Fuc(a1-6)]GlcNAc
# Outline: as §1
# [20] = biological target: Man(a1-6)Man
# Outline: as §1
# [21] = biological target: Man(b1-4)GlcNAc
# Outline: as §1
# [22] = biological target: MurNAc(b1-4)GlcNAc
# Outline: as §1
# [23] = biological target: Neu5Ac(a2-3)Gal
# Outline: as §1
# [24] = biological target: Neu5Ac(a2-3)Gal(b1-3)GalNAc
# Outline: as §1
# [25] = biological target: Neu5Ac(a2-3)Gal(b1-3)GalNAc(b1-3)Gal(a1-4)Gal(b1-4)Glc
# Outline: as §1
# [26] = biological target: Neu5Ac(a2-3)Gal(b1-3)GalNAc(b1-4)[Neu5Ac(a2-3)]Gal(b1-4)Glc
# Outline: as §1
# [27] = biological target: Neu5Ac(a2-3)Gal(b1-3)GalNAc(b1-4)[Neu5Ac(a2-8)Neu5Ac(a2-3)]Gal(b1-4)Glc
# Outline: as §1
# [28] = biological target: Neu5Ac(a2-3)Gal(b1-3)GalNAc6S
# Outline: as §1
# [29] = biological target: Neu5Ac(a2-3)Gal(b1-3)GlcNAc
# Outline: as §1
# [30] = biological target: Neu5Ac(a2-3)Gal(b1-3)GlcNAc(b1-2)Man
# Outline: as §1
# [31] = biological target: Neu5Ac(a2-3)Gal(b1-3)GlcNAc(b1-2)Man(a1-3)[GlcNAc(b1-4)][Neu5Ac(a2-3)Gal(b1-3)GlcNAc(b1-2)Man(a1-6)]Man(b1-4)GlcNAc(b1-4)GlcNAc
# Outline: as §1
# [32] = biological target: Neu5Ac(a2-3)Gal(b1-3)GlcNAc(b1-2)Man(a1-3)[Neu5Ac(a2-3)Gal(b1-3)GlcNAc(b1-2)Man(a1-6)]Man(b1-4)GlcNAc(b1-4)GlcNAc
# Outline: as §1
# [33] = biological target: Neu5Ac(a2-3)Gal(b1-3)GlcNAc(b1-2)[Neu5Ac(a2-3)Gal(b1-3)GlcNAc(b1-4)]Man(a1-6)[Neu5Ac(a2-3)Gal(b1-3)GlcNAc(b1-2)Man(a1-3)]Man(b1-4)GlcNAc(b1-4)GlcNAc
# Outline: as §1
# [34] = biological target: Neu5Ac(a2-3)Gal(b1-3)GlcNAc(b1-3)Gal(b1-3)GlcNAc
# Outline: as §1
# [35] = biological target: Neu5Ac(a2-3)Gal(b1-3)GlcNAc(b1-3)Gal(b1-4)GlcNAc
# Outline: as §1
# [36] = biological target: Neu5Ac(a2-3)Gal(b1-3)GlcNAc(b1-3)GalNAc
# Outline: as §1
# [37] = biological target: Neu5Ac(a2-3)Gal(b1-3)GlcNAc(b1-4)Gal(b1-4)Glc
# Outline: as §1
# [38] = biological target: Neu5Ac(a2-3)Gal(b1-3)GlcNAc(b1-6)GalNAc
# Outline: as §1
binder,measurement,setting,value
Aap brpt (Staphylococcus epidermidis) (protein) VDGDPITSTEEIPFDKKREFDPNLAPGTEKVVQKGEPGTKTITTPTTKNPLTGEKVGEGEPTEKITKQPVDEIVHYGGEEIKTGHKDEFDPNAPKGSQTTQPGKPGVKNPDTGEVVTPPVDDVTKYGPVDGDPITSTEEIPFDKKREFDPNLAPGTEKVVQKGEPGTKTITTPTTKNPLTGEKVGEGEPTEKITKQPVDEIVHYGGEEIKPGHKDEFDPNAPKGSQEDVPGKPGVKNPDTGEVVTPPVDDVTKYGPVDGDSITSTEEIPFDKKREFDPNLAPGTEKVVQKGEPGTKTITTPTTKNPLTGEKVGEGEPTEKITKQPVDEIVHYGGEQIPQGHKDEFDPNAPVDSKTEVPGKPGVKNPDTGEVVTPPVDDVTKYGPVDGDSITSTEEIPFDKKREFDPNLAPGTEKVVQKGEPGTKTITTPTTKNPLTGEKVGEGKSTEKVTKQPVDEIVEYGPTK,glycan array binding signal (z-score),[1],-0.942
same,glycan array binding signal (z-score),[2],-0.501
same,glycan array binding signal (z-score),[3],0.039
same,glycan array binding signal (z-score),[4],0.338
same,glycan array binding signal (z-score),[5],0.639
same,glycan array binding signal (z-score),[6],0.692
same,glycan array binding signal (z-score),[7],0.657
same,glycan array binding signal (z-score),[8],-0.923
same,glycan array binding signal (z-score),[9],2.59
same,glycan array binding signal (z-score),[10],-0.696
same,glycan array binding signal (z-score),[11],0.143
same,glycan array binding signal (z-score),[12],0.84
same,glycan array binding signal (z-score),[13],0.329
same,glycan array binding signal (z-score),[14],1.58
same,glycan array binding signal (z-score),[15],2.29
same,glycan array binding signal (z-score),[16],-1
same,glycan array binding signal (z-score),[17],-1.49
same,glycan array binding signal (z-score),[18],0.081
same,glycan array binding signal (z-score),[19],-0.618
same,glycan array binding signal (z-score),[20],1.21
same,glycan array binding signal (z-score),[21],0.142
same,glycan array binding signal (z-score),[22],1.17
same,glycan array binding signal (z-score),[23],0.475
same,glycan array binding signal (z-score),[24],1.35
same,glycan array binding signal (z-score),[25],-2.25
same,glycan array binding signal (z-score),[26],1.23
same,glycan array binding signal (z-score),[27],0.087
same,glycan array binding signal (z-score),[28],0.067
same,glycan array binding signal (z-score),[29],0.6
same,glycan array binding signal (z-score),[30],-0.096
same,glycan array binding signal (z-score),[31],1.1
same,glycan array binding signal (z-score),[32],-1.44
same,glycan array binding signal (z-score),[33],-0.162
same,glycan array binding signal (z-score),[34],-1.16
same,glycan array binding signal (z-score),[35],-1.25
same,glycan array binding signal (z-score),[36],0.672
same,glycan array binding signal (z-score),[37],-1.15
same,glycan array binding signal (z-score),[38],-0.417

# Laid out differently: entries from further up.
binder | measurement | setting | value
Aap brpt (Staphylococcus epidermidis) (protein) VDGDPITSTEEIPFDKKREFDPNLAPGTEKVVQKGEPGTKTITTPTTKNPLTGEKVGEGEPTEKITKQPVDEIVHYGGEEIKTGHKDEFDPNAPKGSQTTQPGKPGVKNPDTGEVVTPPVDDVTKYGPVDGDPITSTEEIPFDKKREFDPNLAPGTEKVVQKGEPGTKTITTPTTKNPLTGEKVGEGEPTEKITKQPVDEIVHYGGEEIKPGHKDEFDPNAPKGSQEDVPGKPGVKNPDTGEVVTPPVDDVTKYGPVDGDSITSTEEIPFDKKREFDPNLAPGTEKVVQKGEPGTKTITTPTTKNPLTGEKVGEGEPTEKITKQPVDEIVHYGGEQIPQGHKDEFDPNAPVDSKTEVPGKPGVKNPDTGEVVTPPVDDVTKYGPVDGDSITSTEEIPFDKKREFDPNLAPGTEKVVQKGEPGTKTITTPTTKNPLTGEKVGEGKSTEKVTKQPVDEIVEYGPTK | glycan array binding signal (z-score) | [5] | 0.639
same | glycan array binding signal (z-score) | [6] | 0.692
